Data source: PubChem BioAssay AID1259424 (University of Nebraska Medical Center, 2018)
Here is a random part of about 14,000 reagents tested. 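Higher correlation or smaller distance means closer resemblance to KSR1 loss; control wells, including KSR1 knockdowns, recur on many plates.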 Further read-outs or replicates are left out here. Not given: the time to read-out.

Assay: 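Rank knockdowns across the genome by resemblance to the KSR1 depletion profile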 (primary screen)
System: human HCT116 colon cancer cells
Reagents: siRNA pool against human genes, 50 nM
Read-out: 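Log2 levels of six mRNAs (branched-DNA multiplex), adjusted by two reference genes and the non-targeting median, then scored against the average KSR1 knockdown pattern as Pearson r and euclidean distance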
Direction: mean correlation with KSR1 profile: higher = expression change more like KSR1 knockdown

| target | mean correlation with KSR1 profile |
| --- | --- |
| CNGB3 | -0.255 |
| PAPSS2 | -0.395 |
| GCNT4 | 0.123 |
| AGTRAP | 0.602 |
| PLPP3 | -0.408 |
| GLRX | 0.219 |

The list goes on (2 carried over from the part before).
| target | mean correlation with KSR1 profile |
| --- | --- |
| PLPP3 | -0.408 |
| GLRX | 0.219 |
| CD276 | 0.681 |
| ENTPD5 | 0.628 |
| NCKAP1L | -0.367 |
| RITA1 | 0.258 |
| PUM1 | 0.734 |
| MLXIP | -0.756 |
| NUP88 | -0.347 |
| MYDGF | -0.209 |
| POM121L1P | 0.154 |
| OGA | 0.304 |
| GALNT6 | -0.0497 |
| PDK1 | 0.613 |
| HEPH | 0.105 |
| FRMD8 | 0.745 |
